PubChem BioAssay AID1259308 | NCATS – 2017
In all, the deposit lists about 59,000 reagents; shown is an unselected part. About 1,510 of all reagents (2.6%) count as active. 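Calls use total luciferase alone and ignore viability, so some active siRNAs may act by altering cell number.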 Unmarked entries are inactive. Reagents against one gene are numbered here. Not all columns of the deposit are shown.

Aim: 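Candidate targets for better recombinant protein yield in mammalian cells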 (primary screen)
Cell system: human HEK293 embryonic kidney cells stably expressing firefly luciferase (HEK-CMV-Luc2-Hygro)
Reagent: single siRNA against human genes, 0.8 pmol siRNA per well
Time to read-out: 72 h
Measured: 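Reporter luminescence and viable-cell signal on separate replicate plates, given as percent of non-targeting control and median/MAD z-scores, plus per-cell luciferase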
Reading the numbers: total luciferase, z-score and total luciferase, % of control: higher = more reporter protein produced
Hit rule: 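An siRNA counts as active if its total luciferase robust z-score exceeds 3; genes with two or more such siRNAs out of three were retested with fresh siRNAs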
Meaning of the calls: active = raised luciferase; inactive = no rise

{"Target gene":"KIAA0825 (GeneID 285600)","reagent no.":1,"total luciferase, z-score":2.4,"total luciferase, % of control":130}
{"Target gene":"KIAA0825 (GeneID 285600)","reagent no.":2,"total luciferase, z-score":-2,"total luciferase, % of control":42.2}
{"Target gene":"KIAA0825 (GeneID 285600)","reagent no.":3,"total luciferase, z-score":1.31,"total luciferase, % of control":108}
{"Target gene":"PLCXD3 (GeneID 345557)","reagent no.":1,"total luciferase, z-score":-0.0137,"total luciferase, % of control":81.6}
{"Target gene":"PLCXD3 (GeneID 345557)","reagent no.":2,"total luciferase, z-score":-0.652,"total luciferase, % of control":68.9}
{"Target gene":"PLCXD3 (GeneID 345557)","reagent no.":3,"total luciferase, z-score":0.856,"total luciferase, % of control":98.9}
{"Target gene":"MYO10 (GeneID 4651)","reagent no.":1,"total luciferase, z-score":-0.141,"total luciferase, % of control":79.1}
{"Target gene":"MYO10 (GeneID 4651)","reagent no.":2,"total luciferase, z-score":-0.198,"total luciferase, % of control":78}
{"Target gene":"MYO10 (GeneID 4651)","reagent no.":3,"total luciferase, z-score":-0.107,"total luciferase, % of control":79.8}
{"Target gene":"ZNF454 (GeneID 285676)","reagent no.":1,"total luciferase, z-score":-1.91,"total luciferase, % of control":43.9}
{"Target gene":"ZNF454 (GeneID 285676)","reagent no.":2,"total luciferase, z-score":0.644,"total luciferase, % of control":94.7}
{"Target gene":"ZNF454 (GeneID 285676)","reagent no.":3,"total luciferase, z-score":-0.317,"total luciferase, % of control":75.6}
{"Target gene":"CDK5 (GeneID 1020)","reagent no.":1,"total luciferase, z-score":-0.0659,"total luciferase, % of control":80.6}
{"Target gene":"CDK5 (GeneID 1020)","reagent no.":2,"total luciferase, z-score":1.57,"total luciferase, % of control":113}
{"Target gene":"CDK5 (GeneID 1020)","reagent no.":3,"total luciferase, z-score":-1.72,"total luciferase, % of control":47.6}
{"Target gene":"TMTC4 (GeneID 84899)","reagent no.":1,"total luciferase, z-score":-0.98,"total luciferase, % of control":62.4}
{"Target gene":"TMTC4 (GeneID 84899)","reagent no.":2,"total luciferase, z-score":0.98,"total luciferase, % of control":101}
{"Target gene":"TMTC4 (GeneID 84899)","reagent no.":3,"total luciferase, z-score":-1.04,"total luciferase, % of control":61.2}

Entries above whose gene name starts with T or t (3):
{"Target gene":"TMTC4 (GeneID 84899)","reagent no.":1,"total luciferase, z-score":-0.98,"total luciferase, % of control":62.4}
{"Target gene":"TMTC4 (GeneID 84899)","reagent no.":2,"total luciferase, z-score":0.98,"total luciferase, % of control":101}
{"Target gene":"TMTC4 (GeneID 84899)","reagent no.":3,"total luciferase, z-score":-1.04,"total luciferase, % of control":61.2}

The list goes on:
{"Target gene":"FAM169BP (GeneID 283777)","reagent no.":1,"total luciferase, z-score":0.955,"total luciferase, % of control":101}
{"Target gene":"FAM169BP (GeneID 283777)","reagent no.":2,"total luciferase, z-score":0.503,"total luciferase, % of control":91.9}
{"Target gene":"FAM169BP (GeneID 283777)","reagent no.":3,"total luciferase, z-score":1.63,"total luciferase, % of control":114}
{"Target gene":"SLC39A2 (GeneID 29986)","reagent no.":1,"total luciferase, z-score":-0.891,"total luciferase, % of control":64.2}
{"Target gene":"SLC39A2 (GeneID 29986)","reagent no.":2,"total luciferase, z-score":-0.608,"total luciferase, % of control":69.8}
{"Target gene":"SLC39A2 (GeneID 29986)","reagent no.":3,"total luciferase, z-score":0.361,"total luciferase, % of control":89.1}
{"Target gene":"FABP4 (GeneID 2167)","reagent no.":1,"total luciferase, z-score":-0.747,"total luciferase, % of control":67}
{"Target gene":"FABP4 (GeneID 2167)","reagent no.":2,"total luciferase, z-score":-1.58,"total luciferase, % of control":50.5}
{"Target gene":"FABP4 (GeneID 2167)","reagent no.":3,"total luciferase, z-score":1.86,"total luciferase, % of control":119}
{"Target gene":"CCT8L2 (GeneID 150160)","reagent no.":1,"total luciferase, z-score":1.1,"total luciferase, % of control":104}
{"Target gene":"CCT8L2 (GeneID 150160)","reagent no.":2,"total luciferase, z-score":0.858,"total luciferase, % of control":99}
{"Target gene":"CCT8L2 (GeneID 150160)","reagent no.":3,"total luciferase, z-score":-0.208,"total luciferase, % of control":77.8}
{"Target gene":"CDH17 (GeneID 1015)","reagent no.":1,"total luciferase, z-score":-0.729,"total luciferase, % of control":67.4}
{"Target gene":"CDH17 (GeneID 1015)","reagent no.":2,"total luciferase, z-score":1.57,"total luciferase, % of control":113}
{"Target gene":"CDH17 (GeneID 1015)","reagent no.":3,"total luciferase, z-score":-0.846,"total luciferase, % of control":65.1}
{"Target gene":"S1PR5 (GeneID 53637)","reagent no.":1,"total luciferase, z-score":-0.676,"total luciferase, % of control":68.4}
{"Target gene":"S1PR5 (GeneID 53637)","reagent no.":2,"total luciferase, z-score":-0.244,"total luciferase, % of control":77}
{"Target gene":"S1PR5 (GeneID 53637)","reagent no.":3,"total luciferase, z-score":1.56,"total luciferase, % of control":113}
{"Target gene":"RDH12 (GeneID 145226)","reagent no.":1,"total luciferase, z-score":1.91,"total luciferase, % of control":120}
{"Target gene":"RDH12 (GeneID 145226)","reagent no.":2,"total luciferase, z-score":0.946,"total luciferase, % of control":101}
{"Target gene":"RDH12 (GeneID 145226)","reagent no.":3,"total luciferase, z-score":0.18,"total luciferase, % of control":85.5}
{"Target gene":"TRMO (GeneID 51531)","reagent no.":1,"total luciferase, z-score":0.658,"total luciferase, % of control":95}
{"Target gene":"TRMO (GeneID 51531)","reagent no.":2,"total luciferase, z-score":0.358,"total luciferase, % of control":89}
{"Target gene":"TRMO (GeneID 51531)","reagent no.":3,"total luciferase, z-score":1.66,"total luciferase, % of control":115}
